From patent publication US20240139149A1, “THERAPEUTIC USES OF UROLITHIN DERIVATIVES” (Vandria SA, priority 2022, published 2024)

Test system: splenic murine T cells
Test: Murine T cells stimulated with αCD3/αCD28 in presence of UA
Type: cell-based
Conditions: T cells exposed 48 hours to UA vs DMSO
Method: Splenic murine T cells were isolated from mice aged 6-20 weeks by negative selection with EasySep mouse T cell isolation kit (Stem cell) according to the manufacturer's instructions. To monitor T cell proliferation, purified T cells were loaded with CellTrace Violet (C34557 ThermoFisher Scientific). T cell activation was initiated using αCD3/CD28 activation beads (11456D; ThermoFisher Scientific) at a ratio of 25 μl dynabeads per 0.5×106 T-cells. Cells were activated with 25-50 μM Urolithin A (Tocris) or DMSO in T cell activation Medium (RPMI (ThermoFisher Scientific) 10% FBS (South America origin), 10 mM Hepes (Sigma), 1×Non-Essential Amino Acid, 1 mM Sodium Pyruvate, 50 µM β-Mercaptoethanol, 100 U/mL penicillin, 100 μg/mL streptomycin and 2 mM Glutamax (ThermoFisher Scientific) for the indicated durations. In selected experiments, cells were stimulated in the presence of inhibitors, namely TCFli (ICG-001; SelleckChem; […]) and PGC-lai (SR-18292, Sigma-Aldrich; […]). For subsequent analysis, activating beads were magnetically removed prior antibody staining. For human T cells, peripheral blood mononuclear cells were purified with a Ficoll-Paque (GE healthcare) gradient. T cells were enriched with EasySep Human T Cell Isolation Kit (StemCell) and activated with dynabead Human T-Activator CD3/CD28 for T Cell Expansion and Activation Kit (11131D; ThermoFisher Scientific), similar to murine T cell stimulation. When the subsequent activation and expansion of CAR T cells was studied, plates were coated with 1 μg/mL anti-human CD3 (αCD3; clone OKT3) and thawed PBMC were cultivated with […] anti-human CD28 (αCD28; 15E8, both Miltenyi Biotec) containing media for three days. (NutriT media (4Cell® Nutri-T media (Sartorius) containing 0.5% penicillin/streptomycin) supplemented with IL-7 (25 U/mL) and IL-15 […] (all Miltenyi Biotec)).
Tumors were minced and digested with Tumor & Tissue Dissociation Reagent (BD Horizon) for 30 min. The remaining organ pieces were filtered through a 70 µm cell strainer. Cells were then washed with PBS 1% BSA and 2 mM EDTA. […]

O=c1oc2cc(O)ccc2c2ccc(O)cc12 [UA, Urolithin A]
downregulated genes: 413
significantly upregulated genes: 765
total number of differentially expressed genes (RNA sequencing): 1178
